The assay has as its system Salmonella enterica serovar Typhimurium SL1344. The assay is described as follows: bacterial growth OD600 after 18 h with compound and polymyxin B; higher = more bacterial growth (less inhibition). As to conditions: 50 µM, Mueller-Hinton broth.

Some of the results follow. Values are raw readings; no control value is given beside them.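 First-pass screen: polymyxin B was added at a level that permeabilizes the Salmonella outer membrane while sparing the inner membrane. DMSO wells, with and without polymyxin B, defined maximum growth. Because plates differed from one another, each plate's data were ranked separately and the compounds with the lowest OD600 were carried forward as hits.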

For the compound `CN(Cc1nc(-c2ccc(C(F)(F)F)cc2)no1)CC1(N2CCOCC2)CCCCC1`, under “polymyxin B 1 µg/mL”, the “bacterial growth OD600” value was found to be 0.83.

Take `CCCN1CCC(NC(C)c2cnc(N3CCCCCCC3)nc2C)CC1` (stereo not given): the “bacterial growth OD600” value (polymyxin B 0.75 µg/mL) turned out to be 0.763.

Consider `c1cc(CN2CCc3onc(-c4ccc5c(c4)OCO5)c3C2)co1`, for which the “bacterial growth OD600” value (polymyxin B 0.75 µg/mL) stood at 0.779.

Turning to `Cc1ccc(OC2CCN(Cc3ccncc3)CC2)c(C(=O)NCc2ccco2)c1`, the “bacterial growth OD600” value (polymyxin B 0.75 µg/mL) was found to be 0.92.

With `CCn1cc(CN2CCC(Oc3ccc(C(=O)NCCOC)cc3Cl)CC2)c(C)n1`, the “bacterial growth OD600” value (polymyxin B 1 µg/mL) turned out to be 0.987.

With `CCN(Cc1nccn1C)C(=O)c1ccc(N2CCN3CCCC3C2)nc1` (stereo not given), under “polymyxin B 1 µg/mL”, the “bacterial growth OD600” value turned out to be 0.989.

`O=C(c1cc2ccccc2s1)N1CCCC(Nc2ccc3c(c2)OCCO3)C1` (stereo not given): the “bacterial growth OD600” value (polymyxin B 1 µg/mL) amounted to 0.012.

`COc1ccc(C(=O)N2CCCCC2C(=O)Nc2cccc(-c3nnc(C)s3)c2)cc1` (stereo not given): the “bacterial growth OD600” value (polymyxin B 1 µg/mL) stood at 0.974.

Take `COc1ccc(F)c(CN2CCCC3(CCN(C(C)=O)C3)C2=O)c1` (stereo not given): the “bacterial growth OD600” value (polymyxin B 1 µg/mL) turned out to be 0.908.

Turning to `COc1cccc(NC(=O)CCC2CCN(S(=O)(=O)c3c(C)noc3C)CC2)c1`, the “bacterial growth OD600” value (polymyxin B 1 µg/mL) was 0.825.

For the compound `O=C(c1cccnc1)N1CCC2(CCCN(Cc3cccc(F)c3F)C2=O)C1` (stereo not given), where the note is “polymyxin B 1 µg/mL”, the “bacterial growth OD600” value is 0.791.

Consider `O=C1CCCN1CCC(=O)N1CCCC(CCc2ccc(F)cc2F)C1` (stereo not given), for which the “bacterial growth OD600” value (polymyxin B 0.75 µg/mL) was 0.704.

With `COC(=O)CC(NC1CCN(c2ccc(C(=O)NCc3ccccc3F)cc2)CC1)C(=O)OC` (stereo not given), for the setting “polymyxin B 0.75 µg/mL”, the “bacterial growth OD600” value came to 0.964.

Take `O=C(Cn1nnnc1CN1CCOCC1)N1CCCN(Cc2ccccc2F)CC1`: the “bacterial growth OD600” value (polymyxin B 1 µg/mL) was 0.933.

Regarding `COC(=O)CCC(=O)NC1CCCN(c2nc3ccccc3s2)C1` (stereo not given), the “bacterial growth OD600” value (polymyxin B 0.75 µg/mL) was found to be 0.805.

On to `CCOC(=O)C1(Cc2cccc(Cl)c2)CCCN(C(=O)CSc2ccncc2)C1` (stereo not given), for which the “bacterial growth OD600” value (polymyxin B 1 µg/mL) stood at 0.014.

On to `Cc1ncsc1CCCNC(=O)CCN1Cc2ccccc2OC(c2ccccc2F)C1` (stereo not given), for which, for the setting “polymyxin B 0.75 µg/mL”, the “bacterial growth OD600” value stood at 0.015.

As for `CN(CCn1ccc2ccccc21)C(=O)c1coc(COc2ccccc2)n1`, the “bacterial growth OD600” value (polymyxin B 0.75 µg/mL) came to 0.005.

Regarding `COc1ccc(OC2CCN(C(=O)C3CC3)CC2)c(C(=O)NCCc2cscn2)c1`, the “bacterial growth OD600” value (polymyxin B 1 µg/mL) was 0.612.

Regarding `Cc1ccccc1C1(CC(=O)N2CCN(C3CCCC3)CC2)CC(=O)N(Cc2ccncc2)C1=O` (stereo not given), the “bacterial growth OD600” value (polymyxin B 0.75 µg/mL) amounted to 0.712.

Source of the values: the supplement of paper PMC12889115.
